The test addresses His-tagged TDG protein (Homo sapiens, UniProt Q13569). Nature of the test: HTRF assay: inhibition of the binding of TDG to double-stranded DNA substrates. The conditions noted are these: read-out: Activity, IC50 class, TDG 40 nM, Biotin-labeled dsDNA substrate 40 nM, 4PL fit. The method, then:
HTRF (Homogeneous Time-Resolved Fluorescence) technology was used to evaluate the inhibitory effects of the compounds on the binding of TDG to double-stranded DNA substrates.
Microplate reader (manufacturer: Perkin Elmer; model: Envision multilabel reader equipped with HTRF module) and Echo 550 (manufacturer: Labcyte; model: Echo 550).
• 1. Preparation of compound concentration gradient: Test compounds were prepared at a starting concentration of 250 µM, with 3-fold serial dilution, 10 concentrations, and duplicate wells. In a 384-well plate, the compounds were gradient-diluted to 40× final concentration solutions at 10 different concentrations. Then 500 nl was transferred to a 384-well reaction plate using Echo 550 for later use. To the negative control wells and positive control wells, 500 nl of 100% DMSO or Biotin-unlabeled dsDNA substrate was added, respectively. • 2. Add 1.5 µl/well of Epigeneous Binding Domain diluent buffer to the 384-well plate, and centrifuge at 1000 rpm for 1 min. • 3. Add 4 µl of 5× final concentration of His-tagged TDG protein (final concentration 40 nM, diluted with Epigeneous Binding Domain diluent buffer) to the 384-well plate, centrifuge at 1000 rpm for 1 min, and incubate at room temperature for 10 min. • 4. […]
Incubate overnight at 4 °C, and read HTRF on the microplate reader. […]

Amino acid sequences for entries named in this document (tags omitted).
UniProt Q13569, whole entry: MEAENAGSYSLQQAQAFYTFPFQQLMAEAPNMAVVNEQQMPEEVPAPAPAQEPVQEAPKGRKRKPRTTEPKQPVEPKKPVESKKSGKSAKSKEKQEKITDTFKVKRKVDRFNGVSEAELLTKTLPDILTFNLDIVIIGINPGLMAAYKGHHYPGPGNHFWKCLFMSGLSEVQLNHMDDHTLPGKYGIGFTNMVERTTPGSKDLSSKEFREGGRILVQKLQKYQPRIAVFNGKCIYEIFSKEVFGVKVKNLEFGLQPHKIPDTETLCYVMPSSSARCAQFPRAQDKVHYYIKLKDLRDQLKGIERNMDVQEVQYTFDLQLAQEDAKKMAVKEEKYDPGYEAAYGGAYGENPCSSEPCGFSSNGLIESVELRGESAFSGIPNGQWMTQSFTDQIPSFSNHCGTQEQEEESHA

Each structure is given as a SMILES string. The structures given here were assigned with low confidence; some may be wrong. A value given as a limit tells only on which side of the number the result lay.

As for `CC(=O)Oc1cc(Cl)c(C2CCC(=O)O2)c2ccccc12` (centres unmarked), the IC50 is less than 0.5 µM. The same measure for `O=C1CCC(c2c(Br)cc(O)cc2Br)O1` (centres unmarked): more than 50 µM.

Source of the values: patent EP4834898A1, “TDG INHIBITOR COMPOUND AND USE THEREOF” (dated 2026).
